Source: PubChem BioAssay AID504791 (Drosophila RNAi Screening Center, 2011)
In all, the deposit lists about 23,000 reagents; shown is an unselected part of those with a known target gene and a result. Of all reagents, 199 (0.86%) were called active. 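Plate-scaled ratios behind the calls are not deposited; printed light signals are raw; many rows marked increased or decreased are still called inactive.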 Not given: the direction of the score.

Test: 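Factors in Argonaute-based small RNA production and activity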 (primary screen)
Cell system: Drosophila S2-derived reporter cells
Reagents: long dsRNA against Drosophila genes, about 150-250 ng dsRNA per well (siRNA assay); about 80-120 ng (miRNA assay)
Time to read-out: about 5 days (siRNA assay); about 4 days (miRNA assay)
Challenge: copper sulfate induction of reporters: 25 µM (siRNA assay); 200 mM stated (miRNA assay), 1-2 days before reading
Measurement: 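Per-well ratio of Renilla over firefly light, expressed relative to that plate's average ratio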
Hit rule: 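First-pass picks had plate-scaled ratios over 1.5 for the siRNA assay, over 1.6 for the miRNA assay, or under 0.6; two distinct dsRNAs had to score alike on retest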

Target gene	DRSC id	stable siRNA reporter change	miRNA reporter change	stable assay Renilla, run 1 (luminescence)	stable assay firefly, run 1 (luminescence)	Call
CG15706	DRSC06577			7212	3.69e5	inactive
drosha	DRSC07607		reporter ratio raised past the hit cutoff	7139	5.08e5	active
Arc42 (Activator-recruited cofactor subunit 42)	DRSC14340			7514	3.73e5	inactive
Arc42 (Activator-recruited cofactor subunit 42)	DRSC15627			7051	3.76e5	inactive
CG4459	DRSC15582			7943	3.67e5	inactive
Rpn7 (Regulatory particle non-ATPase 7)	DRSC16841	reporter ratio raised past the hit cutoff		7732	2.00e5	active
Mgat4a	DRSC09326			3667	2.92e5	inactive
Mgat4a	DRSC11070			7583	3.67e5	inactive
DCX-EMAP	DRSC10012			6602	2.91e5	inactive
DCX-EMAP	DRSC10013			5803	2.95e5	inactive
CG12914	DRSC06229			5395	3.20e5	inactive
alpha-Est7 (alpha-Esterase-7)	DRSC12619			6043	3.97e5	inactive
Brca2 (BRCA2, DNA repair associated)	DRSC04219			6415	3.51e5	inactive
Brca2 (BRCA2, DNA repair associated)	DRSC04220			5439	3.48e5	inactive
CG9550	DRSC03262			7556	6.12e5	inactive
CG8066	DRSC16374			7200	4.61e5	inactive
CG9205	DRSC08642			10962	4.44e5	inactive
Kr (Kruppel)	DRSC04622			7403	5.43e5	inactive
CG13310	DRSC09981			8006	5.25e5	inactive
CG33552	DRSC01551			6007	4.95e5	inactive
CG3345	DRSC00596			11221	6.26e5	inactive
Cpr65Ec (Cuticular protein 65Ec)	DRSC11025			6230	4.80e5	inactive
ZnT33D (Zinc transporter 33D)	DRSC02591			6839	3.13e5	inactive
Atg18b (Autophagy-related 18b)	DRSC03108			11238	5.90e5	inactive
CG1314	DRSC20495			8454	4.36e5	inactive
CG7298	DRSC10802			9236	3.67e5	inactive
Cth (Cystathionine gamma-lyase)	DRSC07422			10659	4.01e5	inactive
Prosalpha6 (Proteasome alpha6 subunit)	DRSC03401	reporter ratio raised past the hit cutoff		7640	2.26e5	active
nmo (nemo)	DRSC08902			5735	4.53e5	inactive
nmo (nemo)	DRSC11377			6068	3.21e5	inactive
CG30371	DRSC06835			6902	3.95e5	inactive
RhoGEF2 (Rho guanine nucleotide exchange factor 2)	DRSC07531			8317	2.73e5	inactive
RhoGEF2 (Rho guanine nucleotide exchange factor 2)	DRSC29373		reporter ratio raised past the hit cutoff			inactive
CG14132	DRSC10136			6418	5.29e5	inactive
CG13606	DRSC14609			6666	3.69e5	inactive
CG18682 (retired record)	DRSC15373			6802	4.20e5	inactive
CG18682 (retired record)	DRSC15374			6179	4.61e5	inactive
CG14642	DRSC12228			8359	2.90e5	inactive
CG33223	DRSC17572			5072	3.62e5	inactive
AP-1sigma (Adaptor Protein complex 1, sigma subunit)	DRSC15899			8787	4.70e5	inactive
CG12608	DRSC19472			9595	5.69e5	inactive
PH4alphaNE1 (prolyl-4-hydroxylase-alpha NE1)	DRSC16546			7383	3.58e5	inactive
wat (waterproof)	DRSC14854			6327	3.75e5	inactive
Slh (SLY-1 homologous)	DRSC00789			6358	3.01e5	inactive
Polr2H (RNA polymerase II, I and III subunit H)	DRSC11642			4735	2.02e5	inactive
GCS2alpha (Glucosidase 2 alpha subunit)	DRSC21036			5423	4.14e5	inactive
mab-21	DRSC18791			6339	5.11e5	inactive
CG17575	DRSC06682			5878	2.89e5	inactive
lilli (lilliputian)	DRSC00708	reporter ratio lowered past the hit cutoff		8845	3.76e5	active
Nph (Nucleophosmin)	DRSC16342			6043	4.19e5	inactive
CG42272	DRSC08766			4107	3.47e5	inactive
CG42272	DRSC22502			3827	2.91e5	inactive
CG17806	DRSC15276			7797	2.48e5	inactive
BRWD3	DRSC15369			9553	4.44e5	inactive
BRWD3	DRSC16032			5559	3.42e5	inactive
CG10646	DRSC09764			4371	3.89e5	inactive
fzy (fizzy)	DRSC03534			8047	4.46e5	inactive

Part of the list above, set out differently.
| Target gene | DRSC id | stable siRNA reporter change | miRNA reporter change | stable assay Renilla, run 1 (luminescence) | stable assay firefly, run 1 (luminescence) | Call |
| --- | --- | --- | --- | --- | --- | --- |
| RhoGEF2 (Rho guanine nucleotide exchange factor 2) | DRSC07531 | – | – | 8317 | 2.73e5 | inactive |
| RhoGEF2 (Rho guanine nucleotide exchange factor 2) | DRSC29373 | – | reporter ratio raised past the hit cutoff | – | – | inactive |
| CG14132 | DRSC10136 | – | – | 6418 | 5.29e5 | inactive |
| CG13606 | DRSC14609 | – | – | 6666 | 3.69e5 | inactive |
| CG18682 (retired record) | DRSC15373 | – | – | 6802 | 4.20e5 | inactive |
| CG18682 (retired record) | DRSC15374 | – | – | 6179 | 4.61e5 | inactive |
| CG14642 | DRSC12228 | – | – | 8359 | 2.90e5 | inactive |
| CG33223 | DRSC17572 | – | – | 5072 | 3.62e5 | inactive |
